Laboratory results as given in paper PMC2999533.
No constants are given. Whether binding was seen depends on the method and setting. Binding seen in cells or lysates may run through a third protein. Some results given as binding are weak or reduced against the parent protein; the word gives no strength.

The chains behind the UniProt entries cited, without tags or fusion partners. Where a name states a change or a piece, a line headed by the entry shows the natural chain unless it says otherwise. A line that says so, or that is headed by a name, gives the form on record, which may keep a tag or linker. Residues count along the entry.
UniProt O00571: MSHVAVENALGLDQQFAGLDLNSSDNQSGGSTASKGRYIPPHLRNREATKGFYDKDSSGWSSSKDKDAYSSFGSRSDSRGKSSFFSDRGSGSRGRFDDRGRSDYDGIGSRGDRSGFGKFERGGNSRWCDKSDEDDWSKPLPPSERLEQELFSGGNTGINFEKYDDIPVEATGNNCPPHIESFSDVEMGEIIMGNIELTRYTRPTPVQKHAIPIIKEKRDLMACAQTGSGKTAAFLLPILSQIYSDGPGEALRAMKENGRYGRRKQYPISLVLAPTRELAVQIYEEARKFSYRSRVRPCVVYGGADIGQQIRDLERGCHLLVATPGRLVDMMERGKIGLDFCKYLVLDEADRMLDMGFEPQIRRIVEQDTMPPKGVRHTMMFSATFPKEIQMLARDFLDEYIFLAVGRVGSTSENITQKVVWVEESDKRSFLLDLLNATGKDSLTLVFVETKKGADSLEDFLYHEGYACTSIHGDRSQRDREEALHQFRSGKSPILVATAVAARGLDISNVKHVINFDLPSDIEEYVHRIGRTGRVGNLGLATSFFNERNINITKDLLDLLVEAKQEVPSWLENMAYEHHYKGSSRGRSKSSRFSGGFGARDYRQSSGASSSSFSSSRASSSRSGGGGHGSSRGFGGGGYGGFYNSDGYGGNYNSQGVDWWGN
DDX3 2-3c, C-terminal region of DDX3 (199-662 aa): residues 199-662 of O00571
HA-tagged DDX3 partial fragment, DDX3-HA (225-662): residues 225-662 of O00571
UniProt Q7Z434: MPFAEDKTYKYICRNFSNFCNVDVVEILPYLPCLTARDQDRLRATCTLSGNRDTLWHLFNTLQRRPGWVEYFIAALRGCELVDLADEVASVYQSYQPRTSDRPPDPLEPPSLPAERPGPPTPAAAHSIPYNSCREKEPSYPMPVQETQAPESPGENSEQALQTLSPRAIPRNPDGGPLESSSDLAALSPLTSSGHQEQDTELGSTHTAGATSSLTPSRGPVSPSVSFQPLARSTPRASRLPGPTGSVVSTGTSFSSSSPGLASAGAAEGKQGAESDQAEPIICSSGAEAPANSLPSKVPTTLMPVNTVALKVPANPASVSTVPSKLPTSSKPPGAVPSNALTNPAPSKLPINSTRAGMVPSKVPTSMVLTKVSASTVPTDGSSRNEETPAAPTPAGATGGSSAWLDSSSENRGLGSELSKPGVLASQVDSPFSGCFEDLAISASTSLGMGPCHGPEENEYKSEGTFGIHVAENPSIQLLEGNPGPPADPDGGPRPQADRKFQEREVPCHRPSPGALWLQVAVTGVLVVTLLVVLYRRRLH

Assays:
Assay in all cases: co-IP; HEK293FT cells co-transfected (400 ng of each plasmid) with HA-DDX3 (whole or fragment) and FLAG-IPS-1, with or without HCV core, for 24 h; lysis buffer 20 mM Tris-HCl pH 7.5, 125 mM NaCl, 1 mM EDTA, 10% glycerol, 1% NP-40; IP with anti-HA (DDX3), blot with anti-FLAG (IPS-1)
[1] = target: DDX3 2-3c, C-terminal region of DDX3 (199-662 aa) (human) (UniProt O00571)
[2] = target: full length DDX3 with C-terminal HA tag (pEF-BOS DDX3-HA) (human) (UniProt O00571)
[3] = target: HA-tagged DDX3 partial fragment, DDX3-HA (225-662) (human) (UniProt O00571)

Measured: binding

FLAG-tagged IPS-1, full length (from UniProt Q7Z434 1-540)
binds: all assays above
